This passage reports concentration results from patent US4937332A, “Cephalosporin derivatives” (Taisho Pharmaceutical Co., Ltd., priority 1987, dated 1990).

The data set can be described thus: in vivo. The following applies: rat, blood, 50 mg/kg in 5% gum arabic, male wister rats, bioassay. As to the method: Three male wister rats (7 weeks old) for each group were administered orally with the test compounds, and the change of the concentration of the compound in blood was measured.
Dosage of the test compound:
50 mg/kg (suspended in 5% gum arabic)
Quantitative method: Bioasssay
(test bacterium: Escherichia coil SC507)

Under “Four Hours after oral administration”, `CC1=C(C(=O)O)N2C(=O)[C@@H](NC(=O)[C@H](N)c3ccccc3)[C@H]2SC1` [Test compound B, Cephalexin] gave a concentration at 4 h of 4780 ng/mL. The molecule also had a concentration at 1 h (One Hour after oral administration) of 14300 ng/mL. Further, the concentration at 2 h (Two Hours after oral administration) is 13700 ng/mL.
